Numbering of substitutions follows the chain as printed. Results are given in words; binding and its absence hold for the method and conditions named. Binding seen in cells or lysates may run through a third protein. Some entries that bind do so weakly or less than the wild type. Where a sequence is shown, tags or fusion partners need not be part of it. Blank lines part the entries; values can stand above or below the binder they belong to.
How the values were obtained:
[1] = molecular target: Myc-ARL13B full length, in vitro translated (human) (UniProt Q3SXY8); experiment: pull-down
[2] = molecular target: T1, LAP-tagged TULP3 K389I, RPE-hTERT (human) (UniProt O75386); experiment: co-IP
T1 sequence: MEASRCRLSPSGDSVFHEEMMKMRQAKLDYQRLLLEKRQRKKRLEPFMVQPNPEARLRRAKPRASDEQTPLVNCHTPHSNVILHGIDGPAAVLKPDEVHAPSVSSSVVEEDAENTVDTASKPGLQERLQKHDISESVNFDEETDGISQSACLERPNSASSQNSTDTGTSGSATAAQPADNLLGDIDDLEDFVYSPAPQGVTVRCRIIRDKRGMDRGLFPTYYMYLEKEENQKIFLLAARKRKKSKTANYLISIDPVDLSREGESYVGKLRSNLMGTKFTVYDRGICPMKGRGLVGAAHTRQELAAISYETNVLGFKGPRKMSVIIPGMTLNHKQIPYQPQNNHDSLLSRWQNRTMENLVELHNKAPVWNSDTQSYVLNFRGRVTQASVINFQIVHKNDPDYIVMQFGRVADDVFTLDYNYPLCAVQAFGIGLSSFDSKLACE

By UniProt entry, the sequences of proteins in these tests, tags left out.
UniProt Q3SXY8: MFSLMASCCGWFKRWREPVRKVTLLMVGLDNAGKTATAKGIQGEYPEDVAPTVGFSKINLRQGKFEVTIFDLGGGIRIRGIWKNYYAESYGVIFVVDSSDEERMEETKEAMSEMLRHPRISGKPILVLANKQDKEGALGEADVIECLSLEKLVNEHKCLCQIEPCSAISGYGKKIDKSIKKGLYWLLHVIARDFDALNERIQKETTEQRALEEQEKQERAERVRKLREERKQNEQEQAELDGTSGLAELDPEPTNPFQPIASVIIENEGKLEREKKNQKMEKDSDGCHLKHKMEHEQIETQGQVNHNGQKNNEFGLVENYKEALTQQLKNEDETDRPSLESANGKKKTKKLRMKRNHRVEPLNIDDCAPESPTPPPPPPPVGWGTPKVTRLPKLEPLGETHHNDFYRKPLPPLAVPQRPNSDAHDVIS

[3] = molecular target: T2, LAP tagged wild type TULP3, RPE-hTERT (human), O75386; experiment: co-IP; settings: remark: other sources report otherwise
T2 chain: T1 sequence with I389K

binding [1]: binds
B1: MBP-TULP3 (protein, UniProt O75386-1 1-442)
chain: T1 sequence with I389K

binding [1]: binds
B2: MBP-Tubby (protein, UniProt P50607 1-506)
chain: MTSKPHSDWIPYSVLDDEGRNLRQQKLDRQRALLEQKQKKKRQEPLMVQANADGRPRSRRARQSEEQAPLVESYLSSSGSTSYQVQEADSLASVQLGATRPTAPASAKRTKAAATAGGQGGAARKEKKGKHKGTSGPAALAEDKSEAQGPVQILTVGQSDHAQDAGETAAGGGERPSGQDLRATMQRKGISSSMSFDEDEEDEEENSSSSSQLNSNTRPSSATSRKSVREAASAPSPTAPEQPVDVEVQDLEEFALRPAPQGITIKCRITRDKKGMDRGMYPTYFLHLDREDGKKVFLLAGRKRKKSKTSNYLISVDPTDLSRGGDSYIGKLRSNLMGTKFTVYDNGVNPQKASSSTLESGTLRQELAAVCYETNVLGFKGPRKMSVIVPGMNMVHERVSIRPRNEHETLLARWQNKNTESIIELQNKTPVWNDDTQSYVLNFHGRVTQASVKNFQIIHGNDPDYIVMQFGRVAEDVFTMDYNYPLCALQAFAIALSSFDSKLACE

binding [2]: binds
B3: IFT139 (protein, UniProt Q7Z4L5 1-1316)
chain: MDSQELKTLINYYCQERYFHHVLLVASEGIKRYGSDPVFRFYHAYGTLMEGKTQEALREFEAIKNKQDVSLCSLLALIYAHKMSPNPDREAILESDARVKEQRKGAGEKALYHAGLFLWHIGRHDKAREYIDRMIKISDGSKQGHVLKAWLDITRGKEPYTKKALKYFEEGLQDGNDTFALLGKAQCLEMRQNYSGALETVNQIIVNFPSFLPAFVKKMKLQLALQDWDQTVETAQRLLLQDSQNVEALRMQALYYVCREGDIEKASTKLENLGNTLDAMEPQNAQLFYNITLAFSRTCGRSQLILQKIQTLLERAFSLNPQQSEFATELGYQMILQGRVKEALKWYKTAMTLDETSVSALVGFIQCQLIEGQLQDADQQLEFLNEIQQSIGKSAELIYLHAVLAMKKNKRQEEVINLLNDVLDTHFSQLEGLPLGIQYFEKLNPDFLLEIVMEYLSFCPMQPASPGQPLCPLLRRCISVLETVVRTVPGLLQTVFLIAKVKYLSGDIEAAFNNLQHCLEHNPSYADAHLLLAQVYLSQEKVKLCSQSLELCLSYDFKVRDYPLYHLIKAQSQKKMGEIADAIKTLHMAMSLPGMKRIGASTKSKDRKTEVDTSHRLSIFLELIDVHRLNGEQHEATKVLQDAIHEFSGTSEEVRVTIANADLALAQGDIERALSILQNVTAEQPYFIEAREKMADIYLKHRKDKMLYITCFREIAERMANPRSFLLLGDAYMNILEPEEAIVAYEQALNQNPKDGTLASKMGKALIKTHNYSMAITYYEAALKTGQKNYLCYDLAELLLKLKWYDKAEKVLQHALAHEPVNELSALMEDGRCQVLLAKVYSKMEKLGDAITALQQARELQARVLKRVQMEQPDAVPAQKHLAAEICAEIAKHSVAQRDYEKAIKFYREALVHCETDNKIMLELARLYLAQDDPDSCLRQCALLLQSDQDNEAATMMMADLMFRKQDYEQAVFHLQQLLERKPDNYMTLSRLIDLLRRCGKLEDVPRFFSMAEKRNSRAKLEPGFQYCKGLYLWYTGEPNDALRHFNKARKDRDWGQNALYNMIEICLNPDNETVGGEVFENLDGDLGNSTEKQESVQLAVRTAEKLLKELKPQTVQGHVQLRIMENYCLMATKQKSNVEQALNTFTEIAASEKEHIPALLGMATAYMILKQTPRARNQLKRIAKMNWNAIDAEEFEKSWLLLADIYIQSAKYDMAEDLLKRCLRHNRSCCKAYEYMGYIMEKEQAYTDAALNYEMAWKYSNRTNPAVGYKLAFNYLKAKRYVDSIDICHQVLEAHPTYPKIRKDILDKARASLRP

binding [3]: binds
B4: IFT139, Q7Z4L5 1-1316 (protein)
chain: B3 chain

Reference: paper doi:10.1101/2021.05.25.445488
